Test results: patent publication US20130142784A1 (The Board of Trustees of the University of Illinois, priority 2010, published 2013)
Results are given in words; binding and its absence hold for the method and conditions named. Some results given as binding are weak or reduced against the parent protein; the word gives no strength.

Biological target: T1, Rb1 in MDA-MB-453 cells (human (in the human cell line MDA-MB-453)) (UniProt P06400)
T1 sequence (looked up): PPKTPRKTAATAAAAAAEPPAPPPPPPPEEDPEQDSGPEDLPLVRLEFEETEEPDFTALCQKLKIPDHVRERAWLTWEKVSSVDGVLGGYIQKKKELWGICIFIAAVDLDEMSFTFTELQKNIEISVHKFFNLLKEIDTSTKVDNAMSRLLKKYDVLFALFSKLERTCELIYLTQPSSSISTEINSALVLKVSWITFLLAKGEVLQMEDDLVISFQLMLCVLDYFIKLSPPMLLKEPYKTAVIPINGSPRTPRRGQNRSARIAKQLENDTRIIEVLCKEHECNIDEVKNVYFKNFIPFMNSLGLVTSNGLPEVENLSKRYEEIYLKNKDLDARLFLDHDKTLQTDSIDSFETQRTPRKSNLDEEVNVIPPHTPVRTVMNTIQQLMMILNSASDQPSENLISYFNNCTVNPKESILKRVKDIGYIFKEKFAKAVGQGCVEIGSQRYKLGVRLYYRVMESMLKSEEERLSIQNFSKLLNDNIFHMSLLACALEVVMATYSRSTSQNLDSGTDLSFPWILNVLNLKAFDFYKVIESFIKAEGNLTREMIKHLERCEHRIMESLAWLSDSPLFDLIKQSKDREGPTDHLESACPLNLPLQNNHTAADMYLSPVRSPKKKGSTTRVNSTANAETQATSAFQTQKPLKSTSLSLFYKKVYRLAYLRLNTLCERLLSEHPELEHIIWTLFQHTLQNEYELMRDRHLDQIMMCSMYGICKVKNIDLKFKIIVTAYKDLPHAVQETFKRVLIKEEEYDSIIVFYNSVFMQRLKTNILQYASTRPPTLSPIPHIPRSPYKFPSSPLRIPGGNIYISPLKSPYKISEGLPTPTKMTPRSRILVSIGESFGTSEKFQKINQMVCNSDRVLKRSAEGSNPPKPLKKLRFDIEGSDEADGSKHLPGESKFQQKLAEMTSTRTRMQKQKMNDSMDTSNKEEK
Assay: western blot of endogenous proteins in MDA-MB-453 cells

binding: binds
B1: endogenous FoxM1 in MDA-MB-453 cells (protein, UniProt Q08050 1-763, looked up)
chain: MKTSPRRPLILKRRRLPLPVQNAPSETSEEEPKRSPAQQESNQAEASKEVAESNSCKFPAGIKIINHPTMPNTQVVAIPNNANIHSIITALTAKGKESGSSGPNKFILISCGGAPTQPPGLRPQTQTSYDAKRTEVTLETLGPKPAARDVNLPRPPGALCEQKRETCADGEAAGCTINNSLSNIQWLRKMSSDGLGSRSIKQEMEEKENCHLEQRQVKVEEPSRPSASWQNSVSERPPYSYMAMIQFAINSTERKRMTLKDIYTWIEDHFPYFKHIAKPGWKNSIRHNLSLHDMFVRETSANGKVSFWTIHPSANRYLTLDQVFKPLDPGSPQLPEHLESQQKRPNPELRRNMTIKTELPLGARRKMKPLLPRVSSYLVPIQFPVNQSLVLQPSVKVPLPLAASLMSSELARHSKRVRIAPKVLLAEEGIAPLSSAGPGKEEKLLFGEGFSPLLPVQTIKEEEIQPGEEMPHLARPIKVESPPLEEWPSPAPSFKEESSHSWEDSSQSPTPRPKKSYSGLRSPTRCVSEMLVIQHRERRERSRSRRKQHLLPPCVDEPELLFSEGPSTSRWAAELPFPADSSDPASQLSYSQEVGGPFKTPIKETLPISSTPSKSVLPRTPESWRLTPPAKVGGLDFSPVQTSQGASDPLPDPLGLMDLSTTPLQSAPPLESPQRLLSSEPLDLISVPFGNSSPSDIDVPKPGSPEPQVSGLAANRSLTEGLVLDTMNDSLSKILLDISFPGLDEDPLGPDNINWSQFIPELQ
